Our source for the binding values is PMC13291236.

The chains behind the UniProt entries cited, without tags or fusion partners. Residues count along the entry.
UniProt P56480, residues 47-529: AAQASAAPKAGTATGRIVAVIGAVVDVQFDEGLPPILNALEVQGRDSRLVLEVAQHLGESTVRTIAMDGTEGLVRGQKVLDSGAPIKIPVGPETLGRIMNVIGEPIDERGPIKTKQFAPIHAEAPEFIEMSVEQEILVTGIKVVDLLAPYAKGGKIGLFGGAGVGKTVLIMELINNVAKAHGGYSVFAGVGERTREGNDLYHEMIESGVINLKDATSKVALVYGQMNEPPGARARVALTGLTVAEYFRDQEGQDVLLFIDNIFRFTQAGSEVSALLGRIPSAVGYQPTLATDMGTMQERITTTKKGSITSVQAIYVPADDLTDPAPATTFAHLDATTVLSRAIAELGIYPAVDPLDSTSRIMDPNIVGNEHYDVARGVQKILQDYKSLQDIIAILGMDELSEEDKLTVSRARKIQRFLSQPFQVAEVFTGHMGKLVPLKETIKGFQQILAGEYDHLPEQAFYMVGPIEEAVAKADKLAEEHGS
UniProt Q03265, residues 44-553: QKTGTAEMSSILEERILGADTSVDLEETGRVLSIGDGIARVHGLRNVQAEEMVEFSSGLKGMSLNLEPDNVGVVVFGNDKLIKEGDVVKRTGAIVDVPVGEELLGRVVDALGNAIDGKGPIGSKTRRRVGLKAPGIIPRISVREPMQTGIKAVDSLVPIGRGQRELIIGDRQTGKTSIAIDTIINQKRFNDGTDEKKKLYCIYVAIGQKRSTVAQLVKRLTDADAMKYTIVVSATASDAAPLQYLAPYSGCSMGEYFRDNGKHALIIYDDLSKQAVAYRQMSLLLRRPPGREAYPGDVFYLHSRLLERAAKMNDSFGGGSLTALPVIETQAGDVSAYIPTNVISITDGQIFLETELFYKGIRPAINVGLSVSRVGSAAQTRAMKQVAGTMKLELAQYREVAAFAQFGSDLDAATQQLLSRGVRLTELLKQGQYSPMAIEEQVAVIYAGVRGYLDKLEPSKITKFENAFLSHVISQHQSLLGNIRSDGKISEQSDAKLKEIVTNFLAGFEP
UniProt P03930: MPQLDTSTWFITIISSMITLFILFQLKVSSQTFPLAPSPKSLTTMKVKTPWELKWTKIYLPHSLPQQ
UniProt Q99KR7, residues 30-206: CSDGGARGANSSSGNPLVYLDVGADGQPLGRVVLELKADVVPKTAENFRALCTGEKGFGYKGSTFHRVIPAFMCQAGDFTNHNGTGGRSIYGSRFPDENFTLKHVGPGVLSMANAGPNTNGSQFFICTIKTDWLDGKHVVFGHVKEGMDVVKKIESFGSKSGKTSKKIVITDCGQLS
UniProt Q8K2B3, residues 43-664: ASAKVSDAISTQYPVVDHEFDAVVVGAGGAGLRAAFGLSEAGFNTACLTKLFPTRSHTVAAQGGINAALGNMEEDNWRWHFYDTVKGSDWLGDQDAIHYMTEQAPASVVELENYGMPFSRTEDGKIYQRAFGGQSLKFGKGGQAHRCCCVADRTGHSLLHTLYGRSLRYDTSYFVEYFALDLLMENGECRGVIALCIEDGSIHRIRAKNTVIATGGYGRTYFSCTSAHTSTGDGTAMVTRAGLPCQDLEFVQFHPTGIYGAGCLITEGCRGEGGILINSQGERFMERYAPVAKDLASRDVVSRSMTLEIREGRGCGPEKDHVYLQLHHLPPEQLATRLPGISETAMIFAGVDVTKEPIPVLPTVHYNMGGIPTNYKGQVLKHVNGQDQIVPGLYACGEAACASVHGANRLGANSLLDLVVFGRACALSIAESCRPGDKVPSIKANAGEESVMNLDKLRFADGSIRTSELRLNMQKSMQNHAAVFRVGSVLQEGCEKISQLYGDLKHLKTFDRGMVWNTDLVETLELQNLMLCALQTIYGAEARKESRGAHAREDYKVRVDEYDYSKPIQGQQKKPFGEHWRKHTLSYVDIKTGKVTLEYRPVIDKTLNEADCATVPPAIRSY

What all share (assay): cross-linking; in-solution XL-MS: intact heart mitochondria (500 µg) of wild-type and Lrpprc knockout mice, 0.5 mM DSSO, 45 min, 15 °C; LC-MS/MS, XlinkX; n = 3 biological replicates
Experiment [1] concerns the target T1, peripheral stalk subunit ATP5J (mouse (endogenous in heart mitochondria)) (UniProt P97450).
T1 sequence: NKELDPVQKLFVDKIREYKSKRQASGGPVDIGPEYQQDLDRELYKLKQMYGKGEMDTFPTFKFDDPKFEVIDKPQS

The target in experiment [2] is ATP synthase F1 subunit β (ATPB) (mouse (endogenous in heart mitochondria)) (UniProt P56480).
In experiment [3] the target is ATP synthase F1 subunit α (ATPA) (mouse (endogenous in heart mitochondria)) (UniProt Q03265).
In experiment [4] the target is T2, ATPase inhibitory factor 1 (ATIF1) (mouse (endogenous in heart mitochondria)) (UniProt O35143).
T2 sequence: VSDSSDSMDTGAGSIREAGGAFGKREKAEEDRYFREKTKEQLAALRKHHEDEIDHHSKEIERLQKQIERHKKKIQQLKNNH

These are yes or no findings as the source states them, for the method shown. Binding seen in cells or lysates may run through a third protein. Some binding calls cover weakened binding; strength is not graded here.

In the case of “FO membrane subunit ATP8 (from UniProt P03930 1-67)”, in experiment [1], the binding entry was “binds”. Take “PPIF (Cyclophilin D) (from UniProt Q99KR7 30-206) (enzyme)”: the binding result in experiment [2] and in experiment [3] was “binds” in each case. Turning to “SDHA (from UniProt Q8K2B3 43-664) (enzyme)”, the binding entry in experiment [4] is reported as “binds”. As to “ATP synthase F1 subunit β (ATPB) (from UniProt P56480 47-529)”, the binding result in experiment [1] is on record as “binds”.
